Data from patent publication US8421457B2, “Methods and systems for magnetically resonating both a subject and a substance administered to the subject” (Applied Magnetics, LLC, priority 2008, dated 2013).

Test system: fibromyalgia patients
Experiment: Case reports: fibromyalgia, drugs combined with MR treatment
Assay type: in vivo, human
Conditions: same subject; thirteen MR treatments within a two-month period
Procedure: In one example, a person experienced fibromyalgia for a number of years. The subject also experienced insomnia, restless legs, and chronic fatigue. The subject took the drug Naproxen (Aleve). The subject received seven consecutive days of 1 to 1.5 hour treatments.
Their primary complaint was back pain. […] The subject received thirteen treatments within a two-month period. […] Approximately two months after completing their first series of treatment, they began a second regimen of ten treatments within a two-month period.
In a further example, a person at least fifty years old suffered from fibromyalgia for a number of years. […] The subject received daily (when possible) treatments for approximately one year.

COC(=O)C1=C(C)NC(C)=C(C(=O)OC)C1c1ccccc1[N+](=O)[O-] [Nifedipine]
pain level after treatment, first series: 0.5
